Library screening results

Sequences of proteins named here, by UniProt entry; tags and fusion partners are left off.
UniProt E9BF75, entry or part of it: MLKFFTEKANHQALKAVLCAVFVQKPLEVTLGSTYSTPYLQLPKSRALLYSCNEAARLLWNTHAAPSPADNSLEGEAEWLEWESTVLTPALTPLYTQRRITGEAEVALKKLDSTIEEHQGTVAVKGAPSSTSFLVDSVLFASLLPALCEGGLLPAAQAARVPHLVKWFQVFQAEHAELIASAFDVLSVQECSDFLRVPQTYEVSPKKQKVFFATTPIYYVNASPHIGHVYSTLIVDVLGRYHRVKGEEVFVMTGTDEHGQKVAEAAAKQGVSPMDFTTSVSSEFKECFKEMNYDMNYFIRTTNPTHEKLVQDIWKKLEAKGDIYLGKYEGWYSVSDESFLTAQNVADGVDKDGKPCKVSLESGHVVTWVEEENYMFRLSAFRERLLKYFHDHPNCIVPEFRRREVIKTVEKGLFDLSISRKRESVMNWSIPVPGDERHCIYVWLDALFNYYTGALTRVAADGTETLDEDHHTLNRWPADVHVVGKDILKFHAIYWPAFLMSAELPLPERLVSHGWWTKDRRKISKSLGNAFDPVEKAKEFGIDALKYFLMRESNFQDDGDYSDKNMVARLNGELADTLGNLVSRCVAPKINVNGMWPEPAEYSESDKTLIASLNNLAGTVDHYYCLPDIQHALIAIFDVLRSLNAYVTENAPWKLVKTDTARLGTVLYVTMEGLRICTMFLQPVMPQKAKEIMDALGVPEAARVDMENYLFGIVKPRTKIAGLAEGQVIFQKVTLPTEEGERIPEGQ

Source: ChEMBL document CHEMBL3988442, “University of Dundee, Small-Polar-MMV Screening Library” (2021).

Mtb heat-shock: 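Assay on Mycobacterium tuberculosis, filed only as a heat shock assay from Cornell; the read-out is not stated. The concentration is filed as 10 mM, unlikely as a test dose, so the dose is not known. Direction is inferred from retests: higher values go with stronger inhibition. Size under these conditions: about 69,000 compounds, about 930 of them at 50% or above in at least one test.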
LdMetRS: 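Primary screen of methionyl-tRNA synthetase; the read-out is not stated. Target: Methionyl-tRNA synthetase (putative), Leishmania donovani (UniProt E9BF75). The test concentration is not given. The values are filed as inhibition. Of about 68,000 compounds tested this way, about 24 (0.035%) reached 50% or more in at least one test.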

All values are in %. The controls that fix the scale are not given in the record; negative values are as filed. Compounds were drawn at random from those tested, without regard to their results.

Result for CCNC(=O)NC(c1ccc(C)cc1)c1cccc(S(C)(=O)=O)c1 (stereo not given) was Mtb heat-shock: 6.184%; LdMetRS: 17.72%.
Result for CCc1nc(CN2CCN(C(=O)N3CCCCC3)CC2)cs1 was Mtb heat-shock: -17.41%; LdMetRS: 7.831%.
Result for O=C(Cc1cccs1)N1CCc2nnc(COc3cncnc3)n2CC1 was Mtb heat-shock: -15.94%; LdMetRS: 10.8%.
Result for CS(=O)(=O)N1CCCC12CCCN(C(=O)c1ccno1)C2 (stereo not given) was Mtb heat-shock: 10.49%; LdMetRS: 5.842%.
Result for CCOc1ccc(NC(C)C(=O)NCCc2cccs2)cc1CO (stereo not given) was Mtb heat-shock: -0.7505%; LdMetRS: 13.71%.
Result for Cc1ccccc1CN(C)CC(O)COCc1ccccc1Cl (stereo not given) was Mtb heat-shock: -9.004%; LdMetRS: 2.915%.
Result for Cc1nn(C)c(C)c1CN(C(=O)c1cc(Cl)c[nH]c1=O)C(C)C was Mtb heat-shock: 2.948%; LdMetRS: 10.21%.
Result for CC(=O)NC(C(=O)N1CCn2cncc2C1)C(C)C (stereo not given) was Mtb heat-shock: 6.369%; LdMetRS: 7.219%.
Result for CNC(=O)c1cn[nH]c1C1CCN(Cc2cccc(C)c2OC)C1 (stereo not given) was Mtb heat-shock: -12.26%; LdMetRS: 14.19%.
Result for COc1ccc(CN2CC[C@@H](O)[C@@H]2Cc2ccccc2)cc1 was LdMetRS: 2.905%.
Result for O=C(NCCOc1ncc(Cl)cc1Cl)c1ccncc1 was Mtb heat-shock: 2.571%; LdMetRS: 13.33%.
Result for N#Cc1ccc(N2CCCC2Cn2cncn2)nc1 (stereo not given) was Mtb heat-shock: 16.34%; LdMetRS: 6.747%.
Result for O=C(O)C(F)(F)F.O=C(O)C(F)(F)F.[H][C@@]12OCCN(Cc3ccc(F)cc3)[C@@]1([H])CC[C@H]2OCCN1CCCC1 was Mtb heat-shock: 2.613%.
Result for CCOC(=O)N1CCN(C(=O)c2cc(OCC)c3ccoc3c2)CC1 was Mtb heat-shock: -14.84%; LdMetRS: 1.983%.
Result for COC(C)(CNS(=O)(=O)c1cccnc1)c1ccccc1F (stereo not given) was Mtb heat-shock: 11.23%; LdMetRS: 14.37%.
Result for Cc1cnn(CC(C)NCc2nc(-c3cccnc3)no2)c1 (stereo not given) was Mtb heat-shock: 9.853%; LdMetRS: 15.04%.
Result for CCc1c(C(=O)N2CC[C@H](N3CCOCC3)[C@H](CCCO)C2)csc1C was Mtb heat-shock: 9.101%; LdMetRS: 9.589%.
Result for c1ccc(C2CCCN2C2CSCCSC2)nc1 (stereo not given) was Mtb heat-shock: 42.79%; LdMetRS: 11.08%.
Result for CNc1cc(N2CCCC2CNCc2cnc(C)s2)ncn1 (stereo not given) was Mtb heat-shock: -6.313%; LdMetRS: 15.26%.
Result for CC(C)c1cc(C(=O)N2CCN(C)[C@@H]3CS(=O)(=O)C[C@@H]32)no1 was LdMetRS: 3.546%.
Result for N#Cc1ccc(CN2CCCC(Cn3cncn3)C2)c(F)c1 (stereo not given) was Mtb heat-shock: -38.16%; LdMetRS: 2.466%.
Result for COc1ccccc1S(=O)(=O)N1CCC2(CC1)OCCCC2O (stereo not given) was Mtb heat-shock: -20%; LdMetRS: 10.18%.
Result for CC(=O)NCC(=O)N(CCN1CCOCC1)Cc1ccco1 was Mtb heat-shock: 16.88%; LdMetRS: 12.04%.
Result for COc1ccc2c(c1)OCC(CNC(=O)c1cc[nH]c1C)C2 (stereo not given) was Mtb heat-shock: 4.866%; LdMetRS: 16.82%.
Result for CS(=O)(=O)CCN1CC(c2ccccc2)(c2ccccc2)CCC1=O was Mtb heat-shock: -27.52%; LdMetRS: 2.419%.
Result for CCCn1[nH]cc/c1=N\C(=O)CN1CCOC(Cn2cc(C)cn2)C1 (stereo not given) was Mtb heat-shock: 4.975%; LdMetRS: 18.18%.
Result for O=S(=O)(c1ccc(Cl)cc1)N1C[C@@H]2CCN[C@@H]2C1 was LdMetRS: 7.778%.
Result for CCCc1nnc2sc(C3CCN(CCOC)CC3)nn12 was Mtb heat-shock: 10.47%; LdMetRS: 4.439%.
Result for COc1cccc(C2CCN2C(=O)c2cnccn2)c1 (stereo not given) was Mtb heat-shock: -14.63%; LdMetRS: 0.7792%.
Result for [H][C@]12CNC[C@@]1(C(=O)N(C)Cc1cnc(NC)nc1)CN(C1CCCC1)C2 was Mtb heat-shock: -0.329%.
Result for O=C(c1cc(C2CC2)[nH]n1)N1CCN(c2nccs2)CC1 was Mtb heat-shock: 9.438%; LdMetRS: 3.631%.
Result for O=C(c1cscn1)N1CCC[C@]2(C[C@H](OCC3CC3)CO2)C1 was Mtb heat-shock: 8.066%; LdMetRS: 12.89%.
Result for CCc1cc(C(=O)N2CCC(C3CCN(c4ncccn4)CC3)C2)on1 (stereo not given) was Mtb heat-shock: 16.09%; LdMetRS: 7.639%.
Result for Cc1ccc(C(=O)NCC2(O)CCOCC2)cc1Br was Mtb heat-shock: -9.63%; LdMetRS: 16.3%.
Result for CC[C@@H]1N(Cc2ccc(F)cc2)CCC[C@]12CCC(=O)N2CCOC was LdMetRS: 4.569%.
Result for O=C(c1ccco1)N1CCCC(c2cc(C(F)F)n3ncnc3n2)C1 (stereo not given) was Mtb heat-shock: -1.265%; LdMetRS: 10.62%.
Result for COc1ccc(CC(=O)N2CCC3(CC2)CCN(CC(C)C)C3=O)cc1 was Mtb heat-shock: -8.613%; LdMetRS: -8.403%.
Result for Cc1noc2nc(C3CCN(Cc4cccnc4)CC3)cc(C(F)F)c12 was LdMetRS: 14.04%.
Result for O=C(CN1CCOCC1)N1CCC(c2cc(N3CCCC3)ncn2)CC1 was Mtb heat-shock: -35.52%; LdMetRS: 4.693%.
Result for Cc1cc(C2CCCN(S(=O)(=O)N(C)C)C2)ccn1 (stereo not given) was Mtb heat-shock: -12.66%; LdMetRS: 0%.
Result for COC(=O)N1CCc2ccc(NC(=O)c3cn(C)nn3)cc2C1 was Mtb heat-shock: 1.135%; LdMetRS: 16.67%.
Result for COc1cccc(-n2cc(CN(C)C(=O)c3cc[nH]n3)cn2)c1 was Mtb heat-shock: 2.577%; LdMetRS: 18.79%.
Result for COC(CNC(=O)C1CCN(S(C)(=O)=O)CC1)c1ccc(C)s1 (stereo not given) was Mtb heat-shock: 4.539%; LdMetRS: 7.645%.
Result for Cc1cnccc1N1CCCN(C(=O)CCCn2ccnc2C)CC1 was Mtb heat-shock: -15.16%; LdMetRS: 17.73%.

Some entries from above, unchanged:

{"smiles": "COc1ccc2c(c1)OCC(CNC(=O)c1cc[nH]c1C)C2", "stereo": "stereo not given", "Mtb heat-shock": 4.866, "LdMetRS": 16.82}
{"smiles": "CC[C@@H]1N(Cc2ccc(F)cc2)CCC[C@]12CCC(=O)N2CCOC", "LdMetRS": 4.569}
{"smiles": "O=C(NCCOc1ncc(Cl)cc1Cl)c1ccncc1", "Mtb heat-shock": 2.571, "LdMetRS": 13.33}